Data as given in PubChem BioAssay AID1508597 (Cure First, 2020).
In all, the deposit lists about 2,100 reagents; shown is a random part of them. 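Calls flag viability under 80% in either arm, not effects specific to rucaparib; the reference for percent is not stated.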 Entries without a mark were called inactive. Reagent sequences are not shown. The record does not give: the 100% reference.

Screen: 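Knock-downs altering ovarian cancer cell survival with or without PARP inhibitor rucaparib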 (primary screen)
System: human ovarian carcinoma lines grown from tumours: OCI-P5x (papillary serous) and OCI-C5x (clear cell)
Reagents: siRNA pool against human genes, 1.25 pmol siRNA per well
Duration: 72 h or 96 h, depending on the cell culture
Challenge: rucaparib 20 µM (about IC30) or vehicle, present until read-out
Read-out: 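ATP luminescence measured at 72 or 96 h according to the culture, then normalised and expressed as percent viability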
Scale: viability, normalised: higher = more viable cells remaining
Hit rule: 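a well counts as a hit if its normalised viability is under 80 percent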
Meaning of the calls: active = viability under 80%; inactive = viability 80% or more

| gene symbol | rucaparib or vehicle | cell line | technical replicate | viability, normalised (%) |
| --- | --- | --- | --- | --- |
| SMYD1 (GeneID 150572) | Rucaparib | OCI-C5x (clear cell) | 1 | 56.2 (active) |
| SMYD1 (GeneID 150572) | Rucaparib | OCI-C5x (clear cell) | 2 | 39.4 (active) |
| SMYD1 (GeneID 150572) | Rucaparib | OCI-C5x (clear cell) | 3 | 62.3 (active) |
| SMYD1 (GeneID 150572) | Rucaparib | OCI-P5x (serous) | 1 | 47.5 (active) |
| SMYD1 (GeneID 150572) | Rucaparib | OCI-P5x (serous) | 2 | 56.4 (active) |
| SMYD1 (GeneID 150572) | Rucaparib | OCI-P5x (serous) | 3 | 55 (active) |
| SMYD1 (GeneID 150572) | Vehicle | OCI-C5x (clear cell) | 1 | 57 (active) |
| SMYD1 (GeneID 150572) | Vehicle | OCI-C5x (clear cell) | 2 | 52.3 (active) |
| SMYD1 (GeneID 150572) | Vehicle | OCI-C5x (clear cell) | 3 | 61.1 (active) |
| SMYD1 (GeneID 150572) | Vehicle | OCI-P5x (serous) | 1 | 52 (active) |
| SMYD1 (GeneID 150572) | Vehicle | OCI-P5x (serous) | 2 | 52 (active) |
| SMYD1 (GeneID 150572) | Vehicle | OCI-P5x (serous) | 3 | 59.8 (active) |
| PARP9 (GeneID 83666) | Rucaparib | OCI-C5x (clear cell) | 1 | 39 (active) |
| PARP9 (GeneID 83666) | Rucaparib | OCI-C5x (clear cell) | 2 | 41.2 (active) |
| PARP9 (GeneID 83666) | Rucaparib | OCI-C5x (clear cell) | 3 | 39 (active) |
| PARP9 (GeneID 83666) | Rucaparib | OCI-P5x (serous) | 1 | 43.8 (active) |
| PARP9 (GeneID 83666) | Rucaparib | OCI-P5x (serous) | 2 | 44.6 (active) |
| PARP9 (GeneID 83666) | Rucaparib | OCI-P5x (serous) | 3 | 42.2 (active) |
| PARP9 (GeneID 83666) | Vehicle | OCI-C5x (clear cell) | 1 | 39.4 (active) |
| PARP9 (GeneID 83666) | Vehicle | OCI-C5x (clear cell) | 2 | 39.4 (active) |
| PARP9 (GeneID 83666) | Vehicle | OCI-C5x (clear cell) | 3 | 27.6 (active) |
| PARP9 (GeneID 83666) | Vehicle | OCI-P5x (serous) | 1 | 41.2 (active) |
| PARP9 (GeneID 83666) | Vehicle | OCI-P5x (serous) | 2 | 64.2 (active) |
| PARP9 (GeneID 83666) | Vehicle | OCI-P5x (serous) | 3 | 78.1 (active) |
| SLIT2 (GeneID 9353) | Rucaparib | OCI-C5x (clear cell) | 1 | 35 (active) |
| SLIT2 (GeneID 9353) | Rucaparib | OCI-C5x (clear cell) | 2 | 27.1 (active) |
| SLIT2 (GeneID 9353) | Rucaparib | OCI-C5x (clear cell) | 3 | 34.1 (active) |
| SLIT2 (GeneID 9353) | Rucaparib | OCI-P5x (serous) | 1 | 40.2 (active) |
| SLIT2 (GeneID 9353) | Rucaparib | OCI-P5x (serous) | 2 | 42.4 (active) |
| SLIT2 (GeneID 9353) | Rucaparib | OCI-P5x (serous) | 3 | 51 (active) |
| SLIT2 (GeneID 9353) | Vehicle | OCI-C5x (clear cell) | 1 | 30.3 (active) |
| SLIT2 (GeneID 9353) | Vehicle | OCI-C5x (clear cell) | 2 | 40.8 (active) |
| SLIT2 (GeneID 9353) | Vehicle | OCI-C5x (clear cell) | 3 | 28.9 (active) |
| SLIT2 (GeneID 9353) | Vehicle | OCI-P5x (serous) | 1 | 45.3 (active) |
| SLIT2 (GeneID 9353) | Vehicle | OCI-P5x (serous) | 2 | 47.9 (active) |
| SLIT2 (GeneID 9353) | Vehicle | OCI-P5x (serous) | 3 | 53.6 (active) |
| MYPOP (GeneID 339344) | Rucaparib | OCI-C5x (clear cell) | 1 | 31.1 (active) |
| MYPOP (GeneID 339344) | Rucaparib | OCI-C5x (clear cell) | 2 | 36.7 (active) |
| MYPOP (GeneID 339344) | Rucaparib | OCI-C5x (clear cell) | 3 | 32.6 (active) |
| MYPOP (GeneID 339344) | Rucaparib | OCI-P5x (serous) | 1 | 36.4 (active) |
| MYPOP (GeneID 339344) | Rucaparib | OCI-P5x (serous) | 2 | 46.6 (active) |
| MYPOP (GeneID 339344) | Rucaparib | OCI-P5x (serous) | 3 | 34.5 (active) |
| MYPOP (GeneID 339344) | Vehicle | OCI-C5x (clear cell) | 1 | 39.9 (active) |
| MYPOP (GeneID 339344) | Vehicle | OCI-C5x (clear cell) | 2 | 25.5 (active) |
| MYPOP (GeneID 339344) | Vehicle | OCI-C5x (clear cell) | 3 | 27.5 (active) |
| MYPOP (GeneID 339344) | Vehicle | OCI-P5x (serous) | 1 | 44 (active) |
| MYPOP (GeneID 339344) | Vehicle | OCI-P5x (serous) | 2 | 39.3 (active) |
| MYPOP (GeneID 339344) | Vehicle | OCI-P5x (serous) | 3 | 42.8 (active) |
| PELP1 (GeneID 27043) | Rucaparib | OCI-C5x (clear cell) | 1 | 32.3 (active) |
| PELP1 (GeneID 27043) | Rucaparib | OCI-C5x (clear cell) | 2 | 54 (active) |
| PELP1 (GeneID 27043) | Rucaparib | OCI-C5x (clear cell) | 3 | 50 (active) |
| PELP1 (GeneID 27043) | Rucaparib | OCI-P5x (serous) | 1 | 74 (active) |
| PELP1 (GeneID 27043) | Rucaparib | OCI-P5x (serous) | 2 | 73.4 (active) |
| PELP1 (GeneID 27043) | Rucaparib | OCI-P5x (serous) | 3 | 67.6 (active) |
| PELP1 (GeneID 27043) | Vehicle | OCI-C5x (clear cell) | 1 | 57 (active) |
| PELP1 (GeneID 27043) | Vehicle | OCI-C5x (clear cell) | 2 | 47.4 (active) |
| PELP1 (GeneID 27043) | Vehicle | OCI-C5x (clear cell) | 3 | 40.6 (active) |
| PELP1 (GeneID 27043) | Vehicle | OCI-P5x (serous) | 1 | 68.7 (active) |
| PELP1 (GeneID 27043) | Vehicle | OCI-P5x (serous) | 2 | 59.2 (active) |
| PELP1 (GeneID 27043) | Vehicle | OCI-P5x (serous) | 3 | 72.2 (active) |
| ASF1B (GeneID 55723) | Rucaparib | OCI-C5x (clear cell) | 1 | 49.6 (active) |
| ASF1B (GeneID 55723) | Rucaparib | OCI-C5x (clear cell) | 2 | 24.2 (active) |
| ASF1B (GeneID 55723) | Rucaparib | OCI-C5x (clear cell) | 3 | 54.4 (active) |
| ASF1B (GeneID 55723) | Rucaparib | OCI-P5x (serous) | 1 | 60.6 (active) |
| ASF1B (GeneID 55723) | Rucaparib | OCI-P5x (serous) | 2 | 72.8 (active) |
| ASF1B (GeneID 55723) | Rucaparib | OCI-P5x (serous) | 3 | 58.4 (active) |
| ASF1B (GeneID 55723) | Vehicle | OCI-C5x (clear cell) | 1 | 42.6 (active) |
| ASF1B (GeneID 55723) | Vehicle | OCI-C5x (clear cell) | 2 | 36.2 (active) |
| ASF1B (GeneID 55723) | Vehicle | OCI-C5x (clear cell) | 3 | 32.3 (active) |
| ASF1B (GeneID 55723) | Vehicle | OCI-P5x (serous) | 1 | 65.4 (active) |
| ASF1B (GeneID 55723) | Vehicle | OCI-P5x (serous) | 2 | 62.7 (active) |
| ASF1B (GeneID 55723) | Vehicle | OCI-P5x (serous) | 3 | 58.4 (active) |
| FANCL (GeneID 55120) | Rucaparib | OCI-C5x (clear cell) | 1 | 45.6 (active) |
| FANCL (GeneID 55120) | Rucaparib | OCI-C5x (clear cell) | 2 | 47.3 (active) |
| FANCL (GeneID 55120) | Rucaparib | OCI-C5x (clear cell) | 3 | 45.1 (active) |
| FANCL (GeneID 55120) | Rucaparib | OCI-P5x (serous) | 1 | 61.4 (active) |
| FANCL (GeneID 55120) | Rucaparib | OCI-P5x (serous) | 2 | 68.3 (active) |
| FANCL (GeneID 55120) | Rucaparib | OCI-P5x (serous) | 3 | 56.4 (active) |
| FANCL (GeneID 55120) | Vehicle | OCI-C5x (clear cell) | 1 | 47.8 (active) |
| FANCL (GeneID 55120) | Vehicle | OCI-C5x (clear cell) | 2 | 57.5 (active) |
| FANCL (GeneID 55120) | Vehicle | OCI-C5x (clear cell) | 3 | 35.9 (active) |
| FANCL (GeneID 55120) | Vehicle | OCI-P5x (serous) | 1 | 54.7 (active) |
| FANCL (GeneID 55120) | Vehicle | OCI-P5x (serous) | 2 | 55.5 (active) |
| FANCL (GeneID 55120) | Vehicle | OCI-P5x (serous) | 3 | 56 (active) |
